Here are results for 5 substances from PMC2475671.

For assay [1], the target named is T1, Orc2 (endogenous, S2 cells) (Drosophila (endogenous in S2 cells)) (UniProt Q24168).
T1 sequence: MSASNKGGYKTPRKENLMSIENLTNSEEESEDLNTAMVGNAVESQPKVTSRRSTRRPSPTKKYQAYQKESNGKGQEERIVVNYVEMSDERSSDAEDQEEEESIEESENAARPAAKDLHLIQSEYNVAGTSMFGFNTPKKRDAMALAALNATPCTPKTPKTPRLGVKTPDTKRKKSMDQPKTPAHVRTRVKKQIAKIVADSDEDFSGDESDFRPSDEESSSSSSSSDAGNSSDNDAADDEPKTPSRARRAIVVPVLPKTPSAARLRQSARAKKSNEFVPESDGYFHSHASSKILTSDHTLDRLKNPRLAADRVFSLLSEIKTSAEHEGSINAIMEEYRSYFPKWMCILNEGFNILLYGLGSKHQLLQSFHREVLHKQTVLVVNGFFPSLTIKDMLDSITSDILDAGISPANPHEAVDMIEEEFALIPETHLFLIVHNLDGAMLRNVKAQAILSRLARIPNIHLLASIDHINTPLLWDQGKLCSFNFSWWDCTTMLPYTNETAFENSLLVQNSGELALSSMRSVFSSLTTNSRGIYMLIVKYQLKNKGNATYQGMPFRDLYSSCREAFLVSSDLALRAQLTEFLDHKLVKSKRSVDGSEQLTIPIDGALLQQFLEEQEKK
The assay can be described thus: co-IP; extracts of transfected S2 cells, uninduced or copper sulfate induced; endogenous partner precipitated with anti-Orc2 or anti-dE2F1 serum (1:100) and protein G beads, anti-V5 immunoblot; IP buffer 150 mM NaCl, 50 mM Tris pH 8, 2.5 mM EDTA, 2.5 mM EGTA, 1% NP-40; on ice one hour.

Assay [2] deals with T1, Orc2 (endogenous, S2 cells) (Drosophila (endogenous in S2 cells)). The assay is described as follows: co-IP; as for the other S2 extracts, but extracts precleared with rabbit serum and protein G beads, ethidium bromide included to eliminate DNA-mediated interactions, anti-V5 blot at 1:1000; IP with anti-HA (negative control), anti-dE2F1 and anti-Orc2.

Results are given in words; binding and its absence hold for the method and conditions named. Binding seen in cells or lysates may run through a third protein. Binding calls can cover weak binding; strength is not graded here.

Take “Rbf1(1–150)-V5 (Drosophila) (domain or fragment)”: in assay [1], the binding result is given as “no binding”.

As for “Rbf1(1–330)-V5 (Drosophila) (domain or fragment)”, in assay [1], the binding entry was “binds”.

In the case of “Rbf1(1–345)-V5 (Drosophila) (domain or fragment)”, the binding entry in assay [1] is “binds”.

With “Rbf1(345–797)-V5 (Drosophila) (domain or fragment)”, the binding entry in assay [1] is on record as “no binding”.

In the case of “Rbf1(345–845)-V5 (Drosophila) (domain or fragment)”, in assay [2], the binding result was “binds”.
